PubChem BioAssay AID1259405 | NCATS, 2018
Here is a random part of about 50,000 reagents. About 4,000 of all reagents (8%) were called active. 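Mouse siRNA library applied to hamster cells; one well for each siRNA.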 Reagents against one gene are numbered here. Reagent sequences are not shown.

Screen: 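Silenced genes that increase secreted GFP made by CHO cells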 (primary screen)
System: Chinese hamster CHO-K1 ovary cells with stable secreted eGFP expression
Knock-down reagent: single siRNA against mouse genes, 0.8 pmol siRNA per well (2 µl of 400 nM stock)
Time to read-out: 3 days
Read-out: 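Percent of the per-plate non-targeting control median for intracellular GFP per well by laser scanning cytometry and for cell viability by ATP luminescence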
Direction: GFP, % of control: higher = more GFP per well, higher productivity; viability (ATP), % of control: higher = more viable cells (more ATP)
Rule for the call: 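a knock-down is called active if GFP reaches 120% or more of non-targeting control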

gene | siRNA no. | GFP, % of control | viability (ATP), % of control | call
Tor1b (torsin family 1, member B) | 1 | 137 | 97.8 | active
Tor1b (torsin family 1, member B) | 2 | 110 | 100 | inactive
Tor1b (torsin family 1, member B) | 3 | 123 | 117 | active
1700001J03Rik (RIKEN cDNA 1700001J03 gene) | 1 | 62.8 | 46 | inactive
1700001J03Rik (RIKEN cDNA 1700001J03 gene) | 2 | 110 | 92.3 | inactive
1700001J03Rik (RIKEN cDNA 1700001J03 gene) | 3 | 88.9 | 87.9 | inactive
Sox5 (SRY (sex determining region Y)-box 5) | 1 | 87.7 | 108 | inactive
Sox5 (SRY (sex determining region Y)-box 5) | 2 | 65.6 | 56.1 | inactive
Sox5 (SRY (sex determining region Y)-box 5) | 3 | 92.5 | 103 | inactive
Osbpl3 (oxysterol binding protein-like 3) | 1 | 59.6 | 78.3 | inactive
Osbpl3 (oxysterol binding protein-like 3) | 2 | 86.3 | 85.1 | inactive
Osbpl3 (oxysterol binding protein-like 3) | 3 | 95.7 | 104 | inactive
Zfp870 (zinc finger protein 870) | 1 | 58.4 | 46.7 | inactive
Zfp870 (zinc finger protein 870) | 2 | 62.7 | 63.2 | inactive
Zfp870 (zinc finger protein 870) | 3 | 74.4 | 108 | inactive
Lrrn4cl (LRRN4 C-terminal like) | 1 | 37.2 | 46 | inactive
Lrrn4cl (LRRN4 C-terminal like) | 2 | 63.1 | 72.7 | inactive
Lrrn4cl (LRRN4 C-terminal like) | 3 | 60.8 | 71.4 | inactive
Rac3 (Rac family small GTPase 3) | 1 | 64.2 | 45.9 | inactive
Rac3 (Rac family small GTPase 3) | 2 | 115 | 124 | inactive
Rac3 (Rac family small GTPase 3) | 3 | 42 | 90.1 | inactive
Rora (RAR-related orphan receptor alpha) | 1 | 70.1 | 62.3 | inactive
Rora (RAR-related orphan receptor alpha) | 2 | 74.6 | 107 | inactive
Rora (RAR-related orphan receptor alpha) | 3 | 49.7 | 48.7 | inactive
Pard6a (par-6 family cell polarity regulator alpha) | 1 | 60.1 | 76.4 | inactive
Pard6a (par-6 family cell polarity regulator alpha) | 2 | 97.4 | 55.7 | inactive
Pard6a (par-6 family cell polarity regulator alpha) | 3 | 78.1 | 131 | inactive
Acap3 (ArfGAP with coiled-coil, ankyrin repeat and PH domains 3) | 1 | 129 | 77.2 | active
Acap3 (ArfGAP with coiled-coil, ankyrin repeat and PH domains 3) | 2 | 102 | 73 | inactive
Acap3 (ArfGAP with coiled-coil, ankyrin repeat and PH domains 3) | 3 | 105 | 84.2 | inactive
Ing3 (inhibitor of growth family, member 3) | 1 | 74.7 | 79.2 | inactive
Ing3 (inhibitor of growth family, member 3) | 2 | 80 | 79.2 | inactive
H2bc8 (H2B clustered histone 8) | 1 | 42.1 | 56.5 | inactive
H2bc8 (H2B clustered histone 8) | 2 | 86.2 | 93.3 | inactive
H2bc8 (H2B clustered histone 8) | 3 | 89.1 | 80.9 | inactive
Scube2 (signal peptide, CUB domain, EGF-like 2) | 1 | 95.5 | 121 | inactive
Scube2 (signal peptide, CUB domain, EGF-like 2) | 2 | 125 | 87.7 | active
Magea6 (MAGE family member A6) | 1 | 63.9 | 68.4 | inactive
Magea6 (MAGE family member A6) | 2 | 96.5 | 64.3 | inactive
Magea6 (MAGE family member A6) | 3 | 64.3 | 57.5 | inactive
Ift38 (intraflagellar transport 38) | 1 | 79.3 | 74.9 | inactive
Ift38 (intraflagellar transport 38) | 2 | 39.5 | 66.4 | inactive
Ift38 (intraflagellar transport 38) | 3 | 92.4 | 75.6 | inactive
Or7a35 (olfactory receptor family 7 subfamily A member 35) | 1 | 45.8 | 65.4 | inactive
Or7a35 (olfactory receptor family 7 subfamily A member 35) | 2 | 35.9 | 51.1 | inactive
Or7a35 (olfactory receptor family 7 subfamily A member 35) | 3 | 30 | 60.6 | inactive
Tbx4 (T-box 4) | 1 | 116 | 114 | inactive
Tbx4 (T-box 4) | 2 | 87.7 | 66.8 | inactive
Tbx4 (T-box 4) | 3 | 68.3 | 76.6 | inactive
Rnf5 (ring finger protein 5) | 1 | 52.6 | 58.7 | inactive
Rnf5 (ring finger protein 5) | 2 | 46 | 79.7 | inactive
Rnf5 (ring finger protein 5) | 3 | 85 | 100 | inactive
Or8b3b (olfactory receptor family 8 subfamily B member 3B) | 1 | 57.9 | 57.2 | inactive
Or8b3b (olfactory receptor family 8 subfamily B member 3B) | 2 | 44.5 | 28.4 | inactive
Or8b3b (olfactory receptor family 8 subfamily B member 3B) | 3 | 88.9 | 67.8 | inactive
Fermt3 (fermitin family member 3) | 1 | 63 | 81.3 | inactive
Fermt3 (fermitin family member 3) | 2 | 80.5 | 86 | inactive
Fermt3 (fermitin family member 3) | 3 | 115 | 120 | inactive

No new results follow: entries from further up.
gene | siRNA no. | GFP, % of control | viability (ATP), % of control | call
Or7a35 (olfactory receptor family 7 subfamily A member 35) | 2 | 35.9 | 51.1 | inactive
Or7a35 (olfactory receptor family 7 subfamily A member 35) | 3 | 30 | 60.6 | inactive
Tbx4 (T-box 4) | 1 | 116 | 114 | inactive
Tbx4 (T-box 4) | 2 | 87.7 | 66.8 | inactive
Tbx4 (T-box 4) | 3 | 68.3 | 76.6 | inactive
Rnf5 (ring finger protein 5) | 1 | 52.6 | 58.7 | inactive
Rnf5 (ring finger protein 5) | 2 | 46 | 79.7 | inactive
Rnf5 (ring finger protein 5) | 3 | 85 | 100 | inactive
Or8b3b (olfactory receptor family 8 subfamily B member 3B) | 1 | 57.9 | 57.2 | inactive
